Data reported in article PMC6386010.
Results are given in words; binding and its absence hold for the method and conditions named. Binding seen in cells or lysates may run through a third protein. Some entries that bind do so weakly or less than the wild type.

Chains of the proteins cited; added tags and fusions are not shown. Residues count along the entry.
UniProt P63165, residues 1-97: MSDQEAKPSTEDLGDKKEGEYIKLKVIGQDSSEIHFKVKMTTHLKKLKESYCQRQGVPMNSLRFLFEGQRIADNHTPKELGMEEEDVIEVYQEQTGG
UniProt Q01959: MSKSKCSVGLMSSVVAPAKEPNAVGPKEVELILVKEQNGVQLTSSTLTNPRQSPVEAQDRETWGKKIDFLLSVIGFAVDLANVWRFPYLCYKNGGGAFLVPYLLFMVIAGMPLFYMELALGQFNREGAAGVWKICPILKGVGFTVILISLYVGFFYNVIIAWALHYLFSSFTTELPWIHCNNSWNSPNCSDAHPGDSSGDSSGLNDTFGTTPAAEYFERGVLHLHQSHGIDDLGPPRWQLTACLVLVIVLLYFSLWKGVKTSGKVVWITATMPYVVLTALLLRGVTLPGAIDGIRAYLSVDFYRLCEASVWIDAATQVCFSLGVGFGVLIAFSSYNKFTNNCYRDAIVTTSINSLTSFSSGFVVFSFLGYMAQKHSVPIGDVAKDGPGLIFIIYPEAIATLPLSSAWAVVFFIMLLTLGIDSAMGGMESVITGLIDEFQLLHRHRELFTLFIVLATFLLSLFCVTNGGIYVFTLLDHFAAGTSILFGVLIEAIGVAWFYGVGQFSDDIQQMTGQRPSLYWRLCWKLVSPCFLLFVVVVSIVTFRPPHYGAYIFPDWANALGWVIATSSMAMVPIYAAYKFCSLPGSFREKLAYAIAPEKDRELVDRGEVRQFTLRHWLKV

Biological target: SUMO1-HA (UniProt P63165)
Assay: co-IP; HEK-DAT cells transfected with SUMO1-HA; fresh lysate in RIPA buffer with 20 mM NEM and protease inhibitors; immunoprecipitated with rabbit anti-SUMO1 (rabbit IgG as control), 4°C overnight; blotted with anti-HA and anti-DAT (MAB)

- binding: binds
Substance: dopamine transporter (DAT), stably expressed in HEK-293 cells (HEK-DAT) (from UniProt Q01959 1-620)
